{
  "sequences": {"note": "The chains behind the UniProt entries cited, without tags or fusion partners. Where a name states a change or a piece, a line headed by the entry shows the natural chain unless it says otherwise.", "UniProt P51450": "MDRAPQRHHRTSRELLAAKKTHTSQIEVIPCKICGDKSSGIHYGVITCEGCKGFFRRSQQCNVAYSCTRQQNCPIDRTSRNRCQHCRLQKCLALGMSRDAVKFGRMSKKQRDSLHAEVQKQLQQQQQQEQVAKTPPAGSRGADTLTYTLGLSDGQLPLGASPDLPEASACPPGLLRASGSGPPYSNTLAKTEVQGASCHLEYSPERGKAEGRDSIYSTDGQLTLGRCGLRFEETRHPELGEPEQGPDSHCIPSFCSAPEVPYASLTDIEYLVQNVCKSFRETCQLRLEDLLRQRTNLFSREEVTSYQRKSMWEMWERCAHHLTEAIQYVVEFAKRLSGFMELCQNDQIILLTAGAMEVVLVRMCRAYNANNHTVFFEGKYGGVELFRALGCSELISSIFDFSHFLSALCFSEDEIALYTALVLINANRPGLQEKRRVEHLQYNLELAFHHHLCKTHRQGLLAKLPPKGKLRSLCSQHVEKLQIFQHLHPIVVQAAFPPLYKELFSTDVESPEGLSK"},
  "source": "PubChem BioAssay AID2551",
  "about": "(National Center for Advancing Translational Sciences (NCATS), 2010)",
  "note": "The whole screen tested about 310,000 compounds, of which about 17,000 (5.5%) were called active. This list was built around the results that the source calls inconclusive (neither active nor inactive); the mix of calls is not that of the screen. Calls come from the whole dose curve; as a rule, active = well fitted inhibition curve with a large enough effect; inconclusive = small, poorly fitted or top-dose-only effect, or effect the other way; inactive = no such curve, though single readings can be large or run the other way. A potency beside an inconclusive call is a rough fit, not a confirmed value. % is set by controls: 0 for no effect and ±100 for the full control effect; potency is the fitted concentration of half-maximal effect.",
  "data": [
    {"target": "Nuclear receptor ROR-gamma (Mus musculus) (UniProt P51450)", "experiment": "qHTS for inhibitors of ROR gamma transcriptional activity; note: nearly all actives have a fitted effect of over 60% in size", "settings": "Drosophila S2 Gal4-RORgamma UAS-luciferase reporter, 20 h; activity change, negative = inhibition: at 53.6 µM (top of the series)", "procedure,_shortened": "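Using a luciferase readout, inhibitors were identified by reduced reporter activity in Drosophila cells coexpressing a copper-inducible Gal4–ROR gamma fusion and UAS-driven Photinus luciferase, incubated 20 hr after 700 uM copper sulfate.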", "values": [
      {"compound": "CN(C)/C=N/c1cnc(C(=O)c2ccc(Cl)cc2)n1C", "Potency": "inconclusive: 2.82 µM [activator, partial curve, poor fit]"},
      {"compound": "Nc1c(S(=O)(=O)c2ccccc2)cnc2c(-c3ccc(F)cc3)cnn12", "Potency": "active: 4.47 µM"},
      {"compound": "COc1ccc(C)cc1NC(=S)Nc1ccccc1SC", "Potency": "inconclusive: 15.8 µM [inhibitor, single point]"},
      {"compound": "COCCNC(=S)N/N=C/c1ccc(OCc2ccc(C(=O)OC)cc2)cc1", "Potency": "inconclusive: 10 µM [inhibitor, partial curve]"},
      {"compound": "Cc1cccc2nc(CSc3nnc4ccccn34)cn12", "Potency": "active: 11.2 µM"},
      {"compound": "COc1cccc(CNC(=S)Nc2cc(C)cc(C)c2)c1", "Potency": "active: 4.47 µM"},
      {"compound": "CCc1cccc(Nc2c3c(nc4ncnn24)CCC3)c1", "Potency": "active: 10 µM"},
      {"compound": "C=CCOc1c(Cl)cc(CNn2cn[nH]c2=S)cc1OC", "Potency": "active: 8.91 µM"},
      {"compound": "NC(=O)c1cc2cc(Cl)ccc2oc1=Nc1cccc(C(F)(F)F)c1", "Potency": "inconclusive: 17.8 µM [activator, single point]"},
      {"compound": "CCOC(=O)c1ccccc1NC(=O)c1cn(CC)c2nc(C)ccc2c1=O", "Potency": "active: 11.2 µM"},
      {"compound": "Cc1ccc(C)c2c1cc(C)c1nnc(SCC(=O)N3CCCc4ccccc43)n12", "activity change, negative = inhibition": "inactive: -17%"},
      {"compound": "Cc1nn(-c2ccccn2)c2c1C(c1ccccn1)C1=C(CCCC1=O)N2", "note": "(stereo not drawn)", "activity change, negative = inhibition": "inactive: 7.98%"},
      {"compound": "CCCCn1c2nc3ccccc3nc2c2c(=N)oc(C)nc21", "Potency": "inconclusive: 17.8 µM [inhibitor, single point]"},
      {"compound": "Cc1cc(C(=O)Nc2sc3c(c2C#N)CCCCC3)cs1", "Potency": "inconclusive: 0.1 µM [activator, full curve, poor fit]"},
      {"compound": "Cc1ccc(-n2ccnc2SCC(=O)N(CC(C)C)C2CCS(=O)(=O)C2)c(C)c1", "note": "(stereo not drawn)", "activity change, negative = inhibition": "inactive: 14.8%"},
      {"compound": "CC(=O)N(C)c1ccc(NC(=O)/C=C/c2ccccc2Cl)cc1", "Potency": "active: 1.12 µM"},
      {"compound": "O=C(CCN1c2ccccc2Sc2ccccc21)Nc1ccccc1", "activity change, negative = inhibition": "inactive: 29.4%"},
      {"compound": "COc1ccc(CC(=O)c2ccc(O)cc2O)cc1", "Potency": "inconclusive: 35.5 µM [inhibitor, single point]"},
      {"compound": "O=C(/C=C/NNC(=O)c1ccccc1)c1ccc(Br)cc1", "Potency": "inconclusive: 22.4 µM [inhibitor, single point]"},
      {"compound": "CCCC(CCC(=O)Nc1cc([N+](=O)[O-])ccc1O)C(=O)O", "note": "(stereo not drawn)", "Potency": "inconclusive: 0.199 µM [activator, partial curve, poor fit]"},
      {"compound": "Cc1cc(C)n(-c2ncnc3sc4c(c23)CC(C)CC4)n1", "note": "(stereo not drawn)", "Potency": "inconclusive: 7.08 µM [inhibitor, partial curve]"},
      {"compound": "COc1ccccc1CNc1ccnc(-c2ccc(N(C)C)cc2)n1", "Potency": "inconclusive: 25.1 µM [inhibitor, single point]"},
      {"compound": "O=C(Nc1cccc(S(=O)(=O)N2CCCCC2)c1)c1ccc(OCC2CCCO2)cc1", "note": "(stereo not drawn)", "Potency": "inconclusive: 12.6 µM [activator, partial curve]"},
      {"compound": "O=C(NCc1ccco1)c1cc(-c2ccncc2)nc2ccccc12", "activity change, negative = inhibition": "inactive: 10.1%"},
      {"compound": "Cc1cccc(OCC(=O)Nc2nccs2)c1C", "Potency": "inconclusive: 12.6 µM [inhibitor, partial curve]"},
      {"compound": "COc1ccc(/C=C2\\CCc3ccccc3C2=O)cc1Cn1nc(C)cc1C", "Potency": "inconclusive: 35.5 µM [inhibitor, single point]"},
      {"compound": "CCN(CC)S(=O)(=O)c1cccc(-c2nnc(SC(C)C#N)n2Cc2ccccc2)c1", "note": "(stereo not drawn)", "Potency": "inconclusive: 8.91 µM [activator, partial curve]"},
      {"compound": "Cc1cc(CCC(=O)O)c(C)cc1CCC(=O)O", "activity change, negative = inhibition": "inactive: -38.9%"},
      {"compound": "COc1ccc(C2=NOC(Cn3c(Cc4ccc(Cl)cc4)nc4c3c(=O)n(C)c(=O)n4C)C2)cc1", "note": "(stereo not drawn)", "activity change, negative = inhibition": "inactive: 14%"},
      {"compound": "C(=N\\Nc1nc(N2CCOCC2)nc(N2CCOCC2)n1)/c1ccncc1", "activity change, negative = inhibition": "inactive: 0.478%"},
      {"compound": "N/C(=N\\OC(=O)/C=C/c1ccc(Br)cc1)c1ccccn1", "Potency": "inconclusive: 35.5 µM [inhibitor, single point]"},
      {"compound": "Cc1ccc(S(=O)(=O)N2CCOCC2)cc1N/N=C(\\C#N)c1nc2ccccc2[nH]1", "Potency": "inconclusive: 0.631 µM [activator, full curve]"},
      {"compound": "COc1ccc(-n2c(-c3ccc(Cl)cc3)c[nH]c2=S)cc1", "Potency": "active: 0.447 µM"},
      {"compound": "O=C(Nc1cccc(Cl)c1)Nc1nnc(-c2ccncc2)s1", "Potency": "inconclusive: 11.2 µM [activator, partial curve]"},
      {"compound": "Cc1cc2c(sc3c(C)ccc(C)c32)c(C)n1", "Potency": "active: 17.8 µM"},
      {"compound": "COc1ccc(CNCCC(c2ccc(OC(C)C)cc2)c2ccccc2OC)cc1", "note": "(stereo not drawn)", "Potency": "inconclusive: 35.5 µM [inhibitor, single point]"},
      {"compound": "Cc1ccc(NC(=O)CC2Nc3ccccc3NC2=O)cc1Cl", "note": "(stereo not drawn)", "Potency": "inconclusive: 5.62 µM [activator, single point]"},
      {"compound": "CC(=O)N1CCN(c2ccc(NC(=S)NC(=O)c3ccc(C)c([N+](=O)[O-])c3)cc2)CC1", "Potency": "inconclusive: 35.5 µM [inhibitor, single point]"},
      {"compound": "Cc1cc(N/N=C/c2ccc(F)cc2)nc(NCc2ccccc2)n1", "Potency": "active: 11.2 µM"},
      {"compound": "Cc1cc(Cl)c(S(=O)(=O)Nc2cc(S(=O)(=O)N3CCOCC3)ccc2F)cc1OCC(N)=O", "activity change, negative = inhibition": "inactive: 12.3%"},
      {"compound": "CC(=O)Nc1ccc(NC(=O)COC(=O)C2(c3ccc(Cl)cc3)CCCC2)cc1", "Potency": "inconclusive: 15.8 µM [activator, single point]"},
      {"compound": "C=CCn1c(-c2cccn(Cc3ccc(Cl)cc3)c2=O)n[nH]c1=S", "Potency": "active: 6.31 µM"},
      {"compound": "N#Cc1ccc(-c2cccnc2)nc1SCC(=O)Nc1sc2c(c1C#N)CCC2", "Potency": "active: 12.6 µM"},
      {"compound": "CCCCCCCCCCOC(=O)Cn1c(COc2cccc(OC)c2)[n+](C)c2ccccc21", "Potency": "inconclusive: 7.08 µM [inhibitor, single point]"},
      {"compound": "Cn1c(=O)[nH]c2cc(Cl)cnc21", "activity change, negative = inhibition": "inactive: -0.798% [at 10 µM]"},
      {"compound": "CC(C)C[C@H](NC(=O)c1[nH]cnc1C(=O)N[C@@H](C)C(=O)OCc1ccccc1)C(=O)OC(C)(C)C", "Potency": "active: 7.08 µM"},
      {"compound": "CCNc1nc(SCc2ccccc2)nc(N2CCOCC2)n1", "Potency": "inconclusive: 3.55 µM [activator, single point]"},
      {"compound": "CCOc1cc(S(=O)(=O)Nc2ccc(CC)cc2)ccc1Cl", "Potency": "inconclusive: 35.5 µM [inhibitor, single point]"}
    ]}
  ]
}
